Laboratory results taken from patent US20080119483A1, “COMPOSITIONS AND METHODS FOR INHIBITING PROTOZOAN GROWTH” (priority 2006, published 2008).

Experiments:
[1] = test system: L. major spt2^− promastigotes; experiment: microbe, parasite or virus in culture; format: cell-based, Leishmania major; conditions: for EC50: Leishmania major, 48 h, read-out: EC50 in spt2^−
Protocol: (§1) Log phase L. major LV39 WT and spt2 promastigotes were inoculated at 1.0×10^5 cells/ml and culture densities were determined 48 hours later.
(§2) Wild type (WT) L. major LV39 clone 5 (Rho/SU/59/P), FV1 (MOHM/IL/80/Friedlin virulent clone 1), spt2^− (Δspt2::HYG/Dspt2::PAC), ads1^− (Δads1::HYG/Dads1::SAT), and spt2^−/+SPT2 (Δspt2::HYG/Dspt2::PAC/+pXG-SPT2) cells were grown in M199 with 10% FBS and supplements as described [Zhang, et al., 2003; Kapler, et al., 1990]. For growth inhibition assays, promastigotes were inoculated at 1.0×10^5 cells/ml (in T25 flasks, 5 ml of medium per flask) in various concentrations of drugs. All cultures contained equivalent amount of DMSO or methanol (0.1% or less, from drug stocks). After 48 or 96 (for ads1^− only) hours, culture densities were determined using a Coulter counter (Z1, Beckman) and effects of drugs on growth were assessed in relative to cultures grown in the absence of drugs.

[2] = test system: L. major LV39 WT promastigotes; experiment: microbe, parasite or virus in culture; format: cell-based; conditions: Leishmania major, 48 h, read-out: EC50 in WT
Protocol: as §1, §2
A classical isobologram was constructed by plotting EC50s of drugs either alone or in combination.

**Q.** With `Clc1ccc(COC(Cn2ccnc2)c2ccc(Cl)cc2Cl)c(Cl)c1` (stereo not drawn) [Miconazole] as the compound, how does the EC50 [1] read?
**A.** 700 nM

**Q.** And the EC50 [2]?
**A.** 4300 nM

**Q.** Which EC50 [1] does the source give for `Clc1ccccc1C(c1ccccc1)(c1ccccc1)n1ccnc1` [Clotrimazole] here?
**A.** 650 nM

**Q.** What about the “EC50 (WT)/EC50 (spt2^−)” value ([1]; ratio) of the same compound?
**A.** 2.3

**Q.** What about the “Selectivity against spt2^− parasites (in words)” value ([1]; spt2^− versus LV39 WT) of the same compound?
**A.** did not show such selective activity

**Q.** What about the EC50 [2] of the same compound?
**A.** 1500 nM
